This is one part of the list.

B1: il10ra_site1_normal_mot_HHH_b1_03900_000000129_0001_1_16_H_._HHH_b1_07492_af2_0001_0000500015_0000002_0 (protein)
chain: SSSSSEEEREAYRLIKRIARLLIRGNEEEAEELLRKLEELAKEVNDPALERAVEILEEALSSSSS
B2: il10ra_site1_sap_26_mot_HHH_b2_02736_000000092_0001_22_38_H_._HHH_b1_07250_0001_0000200033_0000002_0_0001 (protein)
chain: SSSSDQDRELVEAAIRLVEQLLEWGDPEAARFALWSAKLLAEEINNPELEKRLEELEEEVNSSSS
B3: il10ra_site1_sap_21_mot_HHH_b1_03900_000000129_0001_1_16_H_._HHH_b1_06247_0001_0000500016_0000002_0_0001 (protein)
chain: SSSSQEAYELSRRVIEEAVELEEEGDPEEARRLLEEALEQLEELGNPIAVLSLEHLLRLLESSSS
B4: il10ra_site1_sap_18_mot_05ca327611f5605f0dd8494b449afcbf_0001_1_000000248_0001_35_51_H_._HHH_b1_04623_0001_0000100009_0000001_0_0001 (protein)
chain: SSSSSEERRELYELLREAAELDHEGDPEEARRVLEEARELAEELNDWVILMQLRHLEKVVDSSSS
B5: il10ra_site1_normal_mot_HHH_b2_00277_af2_000000172_0001_1_17_H_._HHH_b1_03248_0001_0000200009_0000001_0_af2pred_0001 (protein)
chain: SSSSSSEEEEEVEELLEKAKRIPDPEERAYVLIRAFALASRLGDPELERLVKEVAQELLESSSSS
B6: il10ra_site1_normal_mot_HHH_b2_02053_af2_000000006_0001_3_19_H_._HHH_b1_07676_af2_0001_0000300010_0000003_0 (protein)
chain: SSSSSEREEIYRLLREALHIDDPEEREEVLEEALRLAEELGSEVLRHNIEFALEQARREGSSSSS
B7: il10ra_site1_normal_mot_HHH_b1_02809_af2_000000277_0001_40_57_H_._HHH_b1_00310_af2_0001_0000100002_0000002_0 (protein)
chain: SSSSDTAERALRIQIEAAEQIYEAGNPEYARLALRFAKHLAEELGNEELLEEIERLLKEISSSSS
B8: il10ra_site1_sap_20_mot_HHH_b1_00665_000000097_0001_23_39_H_._HHH_b1_06326_0001_0000300009_0000001_0_0001 (protein)
chain: SSSSDEDYKRAKELIREIVELLREGNPEEAKKVLEELRELAEERNSPVLEAVVRFLEELINSSSS
B9: il10ra_site1_normal_mot_HHH_b2_08186_000000021_0001_43_56_H_._HHH_b1_07456_af2_0001_0000400032_0000001_1 (protein)
chain: SSSSSDLEELIEELEELVERNDREEFLRILQEALQHAFRLGDEEALKILWELLKEMEELSSSSSS
B10: il10ra_site1_sap_16_mot_HHH_b2_07873_af2_000000172_0001_1_19_H_._HHH_b2_06046_0001_0000200005_0000001_0_0001 (protein)
chain: SSSSSDAKEEAEELLEEAEELIKQGDPRAIEVLLRAVRLAFEAGDKELLRELWELAHRLKSSSSS
B11: il10ra_site1_normal_mot_ems_3hM_3637_000000290_0001_1_19_H_._HHH_b2_04512_0001_0000200023_0000001_0_af2pred_0001 (protein)
chain: SSSSSEEKQRAFEILREVAELLKQGDDEEARRLLEEVEEIAEETNDPLLRHSAERARLVIESSSS
B12: il10ra_site1_sap_24_mot_HHH_b1_06914_000000280_0001_1_18_H_._HHH_b2_02502_0001_0000100004_0000002_0_0001_af2pred_dldesign_0_af2pred (protein)
chain: SSSSSSADQKAAEVYVEAVQALEAGDLEKAKELLEKLEKIAKEENSPNAKLMVKYLKSLLSSSSS
B13: il10ra_site1_normal_mot_HHH_b2_03330_000000161_0001_1_19_H_._HHH_b1_00317_af2_0001_0000400017_0000001_1 (protein)
chain: SSSSSELEERIRQLLEELEEAAERGDRELVARLVQEILQLITRLGNDELFHELWELFRRAASSSS
B14: il10ra_site1_normal_mot_HHH_b2_07145_000000158_0001_24_40_H_._HHH_b1_07898_af2_0001_0000200026_0000002_0 (protein)
chain: SSSSDEELFERVRRLIEEIVELLRNGDEERAQELTEEIEELAKEYNNFALKSSAEALKRQLSSSS
B15: il10ra_site1_sap_17_mot_HHH_b2_01986_af2_000000130_0001_1_18_H_._HHH_b1_06455_0001_0000300035_0000002_0_0001 (protein)
chain: SSSSDEEVQELMRLAEEAAELDQNGNPEEARKVAEEAEELAEEAGNMNILMNIRHLLKLINSSSS
B16: il10ra_site1_normal_mot_HHH_b2_02337_000000026_0001_38_52_H_._HHH_b1_04115_0001_0000100013_0000001_0 (protein)
chain: SSSSDREERVEKLIEEAEELLEEGNPREASRVLQEAVRHAFESNDPELLRRIWELVQRIFNSSSS
B17: il10ra_site1_normal_mot_HHH_b1_05254_000000006_0001_1_19_H_._HHH_b2_07597_0001_0000500031_0000001_0_af2pred_0001 (protein)
chain: SSSSSDKEEVEEEVRRLLEEAEESDLEERQKLIREALHLALELNDPELLRLVREFARRLFSSSSS
B18: il10ra_site1_normal_mot_HHH_b1_03333_000000091_0001_1_17_H_._HHH_b1_03241_0001_0000400034_0000001_0 (protein)
chain: SSSSYEEVKELIKRIIELAREGNPEEAEEVLEELERLAEEENNPAVRFVVRLLEEVIKLQSSSSS
B19: il10ra_site1_sap_19_mot_HHH_b1_08281_000000266_0001_42_57_H_._HHH_b1_00478_0001_0000200011_0000001_0_0001 (protein)
chain: SSSSSALEIILEVMELALRGNPEEALELLREAQELAREAGNERLVEMIERLLESLERQLGSSSSS

The target of this test is il10ra, Q13651. Put plainly: yeast display titration.
Regarding B1, the “apparent Kd” value is “inactive: no binding seen”. In the case of B2 it was “inactive: no binding seen”; in that of B3, “inactive: no binding seen”; in that of B4, “inactive: no binding seen”. As for B5, the “apparent Kd” value is “inactive: no binding seen”. As for B6, the “apparent Kd” value is “inactive: no binding seen”.

As to B7, the “apparent Kd” value is “inactive: no binding seen”. Consider B8, for which the “apparent Kd” value was “inactive: no binding seen”. As for B9, the entry is “inactive: no binding seen”; as for B10, “inactive: no binding seen”; as for B11, “inactive: no binding seen”. B12: the “apparent Kd” value is “inactive: no binding seen”.

Regarding B13, the “apparent Kd” value was “inactive: no binding seen”. As for B14, the entry is “inactive: no binding seen”; as for B15, “inactive: no binding seen”; as for B16, “inactive: no binding seen”. For the molecule B17, the “apparent Kd” value is “inactive: no binding seen”. As to B18, the “apparent Kd” value was “inactive: no binding seen”.

In the case of B19, the “apparent Kd” value was “inactive: no binding seen”.

The values above are taken from paper PMC10163288.
